No constants are given. Whether binding was seen depends on the method and setting. In cells and extracts the contact can be indirect. Some entries that bind do so weakly or less than the wild type. Blank lines part the entries; values can stand above or below the molecule they belong to.
Experiments:
[1] = target: ASC (apoptosis associated speck-like protein containing caspase recruitment domain [CARD]) (human (endogenous in THP-1)) (UniProt Q9ULZ3); test: co-IP; as a1, but cytoplasmic extract of resting (mock, no CFT073) THP-1 derived macrophages; anti-ASC antibody and Protein A-Sepharose 4B beads overnight at 4 °C; blots for NLRP3, NLRC4 and NAIP
[2] = target: ASC (apoptosis associated speck-like protein containing caspase recruitment domain [CARD]) (human (endogenous in THP-1)) (UniProt Q9ULZ3); test: co-IP; 500 ug cytoplasmic extract (RIPA buffer) of THP-1 derived macrophages infected with E. coli CFT073 (MOI 1:5, 6 h); 1 ug anti-ASC antibody and Protein A-Sepharose 4B beads overnight at 4 °C; washed thrice with RIPA buffer; blots for NLRP3, NLRC4 and NAIP

Chains of the proteins cited; added tags and fusions are not shown.
UniProt Q9ULZ3: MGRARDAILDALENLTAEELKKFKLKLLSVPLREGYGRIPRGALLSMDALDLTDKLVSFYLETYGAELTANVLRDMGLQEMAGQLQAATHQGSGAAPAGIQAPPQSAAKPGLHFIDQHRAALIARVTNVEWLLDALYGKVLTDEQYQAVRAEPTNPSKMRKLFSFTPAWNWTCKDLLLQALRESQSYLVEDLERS

binding [1]: binds weakly
binding [2]: binds
Molecule: NLRC4 (from UniProt Q9NPP4-1 1-1024)

binding [1]: binds weakly
binding [2]: binds
B1: NAIP (NLR family, apoptosis inhibitory protein) (protein, UniProt Q13075-1 1-1403)
chain: MATQQKASDERISQFDHNLLPELSALLGLDAVQLAKELEEEEQKERAKMQKGYNSQMRSEAKRLKTFVTYEPYSSWIPQEMAAAGFYFTGVKSGIQCFCCSLILFGAGLTRLPIEDHKRFHPDCGFLLNKDVGNIAKYDIRVKNLKSRLRGGKMRYQEEEARLASFRNWPFYVQGISPCVLSEAGFVFTGKQDTVQCFSCGGCLGNWEEGDDPWKEHAKWFPKCEFLRSKKSSEEITQYIQSYKGFVDITGEHFVNSWVQRELPMASAYCNDSIFAYEELRLDSFKDWPRESAVGVAALAKAGLFYTGIKDIVQCFSCGGCLEKWQEGDDPLDDHTRCFPNCPFLQNMKSSAEVTPDLQSRGELCELLETTSESNLEDSIAVGPIVPEMAQGEAQWFQEAKNLNEQLRAAYTSASFRHMSLLDISSDLATDHLLGCDLSIASKHISKPVQEPLVLPEVFGNLNSVMCVEGEAGSGKTVLLKKIAFLWASGCCPLLNRFQLVFYLSLSSTRPDEGLASIICDQLLEKEGSVTEMCVRNIIQQLKNQVLFLLDDYKEICSIPQVIGKLIQKNHLSRTCLLIAVRTNRARDIRRYLETILEIKAFPFYNTVCILRKLFSHNMTRLRKFMVYFGKNQSLQKIQKTPLFVAAICAHWFQYPFDPSFDDVAVFKSYMERLSLRNKATAEILKATVSSCGELALKGFFSCCFEFNDDDLAEAGVDEDEDLTMCLMSKFTAQRLRPFYRFLSPAFQEFLAGMRLIELLDSDRQEHQDLGLYHLKQINSPMMTVSAYNNFLNYVSSLPSTKAGPKIVSHLLHLVDNKESLENISENDDYLKHQPEISLQMQLLRGLWQICPQAYFSMVSEHLLVLALKTAYQSNTVAACSPFVLQFLQGRTLTLGALNLQYFFDHPESLSLLRSIHFPIRGNKTSPRAHFSVLETCFDKSQVPTIDQDYASAFEPMNEWERNLAEKEDNVKSYMDMQRRASPDLSTGYWKLSPKQYKIPCLEVDVNDIDVVGQDMLEILMTVFSASQRIELHLNHSRGFIESIRPALELSKASVTKCSISKLELSAAEQELLLTLPSLESLEVSGTIQSQDQIFPNLDKFLCLKELSVDLEGNINVFSVIPEEFPNFHHMEKLLIQISAEYDPSKLVKLIQNSPNLHVFHLKCNFFSDFGSLMTMLVSCKKLTEIKFSDSFFQAVPFVASLPNFISLKILNLEGQQFPDEETSEKFAYILGSLSNLEELILPTGDGIYRVAKLIIQQCQQLHCLRVLSFFKTLNDDSVVEIAKVAISGGFQKLENLKLSINHKITEEGYRNFFQALDNMPNLQELDISRHFTECIKAQATTVKSLSQCVLRLPRLIRLNMLSWLLDADDIALLNVMKERHPQSKYLTILQKWILPFSPIIQK
